Measurements published in article PMC8870324.
These are yes or no findings as the source states them, for the method shown. Binding seen in cells or lysates may run through a third protein. These calls come from enrichment with a bait or labelling near it, and not all partners need be listed. Where a sequence is shown, tags or fusion partners need not be part of it.

T1: C-terminally miniTurbo-tagged SMPD4 (UniProt Q9NXE4)
T1 sequence: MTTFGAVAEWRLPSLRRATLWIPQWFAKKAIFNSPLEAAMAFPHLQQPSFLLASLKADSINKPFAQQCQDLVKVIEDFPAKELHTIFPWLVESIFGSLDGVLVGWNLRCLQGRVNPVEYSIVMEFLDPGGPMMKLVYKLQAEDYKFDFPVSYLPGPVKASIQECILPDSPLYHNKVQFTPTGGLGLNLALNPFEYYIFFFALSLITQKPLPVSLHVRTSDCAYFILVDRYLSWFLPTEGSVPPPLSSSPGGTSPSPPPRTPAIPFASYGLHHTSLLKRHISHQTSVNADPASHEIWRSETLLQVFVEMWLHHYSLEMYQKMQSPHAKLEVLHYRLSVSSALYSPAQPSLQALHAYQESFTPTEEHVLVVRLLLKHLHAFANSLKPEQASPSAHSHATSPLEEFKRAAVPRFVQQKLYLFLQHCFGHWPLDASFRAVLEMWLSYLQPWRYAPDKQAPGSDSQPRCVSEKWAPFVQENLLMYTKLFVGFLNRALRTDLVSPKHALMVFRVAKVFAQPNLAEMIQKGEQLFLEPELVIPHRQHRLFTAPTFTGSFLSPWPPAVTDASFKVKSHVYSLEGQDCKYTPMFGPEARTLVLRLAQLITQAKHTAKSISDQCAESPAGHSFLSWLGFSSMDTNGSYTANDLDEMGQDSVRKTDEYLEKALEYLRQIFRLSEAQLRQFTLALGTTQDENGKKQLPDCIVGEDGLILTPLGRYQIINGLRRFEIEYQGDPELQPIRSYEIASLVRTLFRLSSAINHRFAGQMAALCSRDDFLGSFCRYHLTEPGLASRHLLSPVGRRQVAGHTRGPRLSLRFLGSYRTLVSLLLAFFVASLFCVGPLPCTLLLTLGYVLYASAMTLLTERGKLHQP


These binders were tested against T1, C-terminally miniTurbo-tagged SMPD4 (assay: proximity labelling; miniTurbo fusion baits transfected in HEK293T; 500 µM biotin for 30 min, 24 h after transfection; RIPA lysis, pull-down on streptavidin magnetic beads, on-bead trypsin digestion, nLC-MS/MS; enrichment by emPAI score against the NLS-miniTurbo control; two independent experiments).

| Binder | binding |
| --- | --- |
| NDC1 (protein, UniProt Q9BTX1 1-674) MATAVSRPCAGRSRDILWRVLGWRIVASIVWSVLFLPICTTVFIIFSRIDLFHPIQWLSDSFSDLYSSYVIFYFLLLSVVIIIISIFNVEFYAVVPSIPCSRLALIGKIIHPQQLMHSFIHAAMGMVMAWCAAVITQGQYSFLVVPCTGTNSFGSPAAQTCLNEYHLFFLLTGAFMGYSYSLLYFVNNMNYLPFPIIQQYKFLRFRRSLLLLVKHSCVESLFLVRNFCILYYFLGYIPKAWISTAMNLHIDEQVHRPLDTVSGLLNLSLLYHVWLCGVFLLTTWYVSWILFKIYATEAHVFPVQPPFAEGSDECLPKVLNSNPPPIIKYLALQDLMLLSQYSPSRRQEVFSLSQPGGHPHNWTAISRECLNLLNGMTQKLILYQEAAATNGRVSSSYPVEPKKLNSPEETAFQTPKSSQMPRPSVPPLVKTSLFSSKLSTPDVVSPFGTPFGSSVMNRMAGIFDVNTCYGSPQSPQLIRRGPRLWTSASDQQMTEFSNPSPSTSISAEGKTMRQPSVIYSWIQNKREQIKNFLSKRVLIMYFFSKHPEASIQAVFSDAQMHIWALEGLSHLVAASFTEDRFGVVQTTLPAILNTLLTLQEAVDKYFKLPHASSKPPRISGSLVDTSYKTLRFAFRASLKTAIYRITTTFGEHLNAVQASAEHQKRLQQFLEFKE | binds |
| ALADIN (protein, UniProt Q9NRG9 1-546) MCSLGLFPPPPPRGQVTLYEHNNELVTGSSYESPPPDFRGQWINLPVLQLTKDPLKTPGRLDHGTRTAFIHHREQVWKRCINIWRDVGLFGVLNEIANSEEEVFEWVKTASGWALALCRWASSLHGSLFPHLSLRSEDLIAEFAQVTNWSSCCLRVFAWHPHTNKFAVALLDDSVRVYNASSTIVPSLKHRLQRNVASLAWKPLSASVLAVACQSCILIWTLDPTSLSTRPSSGCAQVLSHPGHTPVTSLAWAPSGGRLLSASPVDAAIRVWDVSTETCVPLPWFRGGGVTNLLWSPDGSKILATTPSAVFRVWEAQMWTCERWPTLSGRCQTGCWSPDGSRLLFTVLGEPLIYSLSFPERCGEGKGCVGGAKSATIVADLSETTIQTPDGEERLGGEAHSMVWDPSGERLAVLMKGKPRVQDGKPVILLFRTRNSPVFELLPCGIIQGEPGAQPQLITFHPSFNKGALLSVGWSTGRIAHIPLYFVNAQFPRFSPVLGRAQEPPAGGGGSIHDLPLFTETSPTSAPWDPLPGPPPVLPHSPHSHL | binds |
| NUP155 (protein, UniProt O75694 1-1391) MPSSLLGAAMPASTSAAALQEALENAGRLIDRQLQEDRMYPDLSELLMVSAPNNPTVSGMSDMDYPLQGPGLLSVPNLPEISSIRRVPLPPELVEQFGHMQCNCMMGVFPPISRAWLTIDSDIFMWNYEDGGDLAYFDGLSETILAVGLVKPKAGIFQPHVRHLLVLATPVDIVILGLSYANLQTGSGVLNDSLSGGMQLLPDPLYSLPTDNTYLLTITSTDNGRIFLAGKDGCLYEVAYQAEAGWFSQRCRKINHSKSSLSFLVPSLLQFTFSEDDPILQIAIDNSRNILYTRSEKGVIQVYDLGQDGQGMSRVASVSQNAIVSAAGNIARTIDRSVFKPIVQIAVIENSESLDCQLLAVTHAGVRLYFSTCPFRQPLARPNTLTLVHVRLPPGFSASSTVEKPSKVHRALYSKGILLMAASENEDNDILWCVNHDTFPFQKPMMETQMTAGVDGHSWALSAIDELKVDKIITPLNKDHIPITDSPVVVQQHMLPPKKFVLLSAQGSLMFHKLRPVDQLRHLLVSNVGGDGEEIERFFKLHQEDQACATCLILACSTAACDREVSAWATRAFFRYGGEAQMRFPTTLPPPSNVGPILGSPVYSSSPVPSGSPYPNPSFLGTPSHGIQPPAMSTPVCALGNPATQATNMSCVTGPEIVYSGKHNGICIYFSRIMGNIWDASLVVERIFKSGNREITAIESSVPCQLLESVLQELKGLQEFLDRNSQFAGGPLGNPNTTAKVQQRLIGFMRPENGNPQQMQQELQRKFHEAQLSEKISLQAIQQLVRKSYQALALWKLLCEHQFTIIVAELQKELQEQLKITTFKDLVIRDKELTGALIASLINCYIRDNAAVDGISLHLQDICPLLYSTDDAICSKANELLQRSRQVQNKTEKERMLRESLKEYQKISNQVDLSNVCAQYRQVRFYEGVVELSLTAAEKKDPQGLGLHFYKHGEPEEDIVGLQAFQERLNSYKCITDTLQELVNQSKAAPQSPSVPKKPGPPVLSSDPNMLSNEEAGHHFEQMLKLSQRSKDELFSIALYNWLIQVDLADKLLQVASPFLEPHLVRMAKVDQNRVRYMDLLWRYYEKNRSFSNAARVLSRLADMHSTEISLQQRLEYIARAILSAKSSTAISSIAADGEFLHELEEKMEVARIQLQIQETLQRQYSHHSSVQDAVSQLDSELMDITKLYGEFADPFKLAECKLAIIHCAGYSDPILVQTLWQDIIEKELSDSVTLSSSDRMHALSLKIVLLGKIYAGTPRFFPLDFIVQFLEQQVCTLNWDVGFVIQTMNEIGVPLPRLLEVYDQLFKSRDPFWNRMKKPLHLLDCIHVLLIRYVENPSQVLNCERRRFTNLCLDAVCGYLVELQSMSSSVAVQAITGNFKSLQAKLERLH | binds |
| NUP85 (protein, UniProt Q9BW27 1-656) MEELDGEPTVTLIPGVNSKKNQMYFDWGPGEMLVCETSFNKKEKSEMVPSCPFIYIIRKDVDVYSQILRKLFNESHGIFLGLQRIDEELTGKSRKSQLVRVSKNYRSVIRACMEEMHQVAIAAKDPANGRQFSSQVSILSAMELIWNLCEILFIEVAPAGPLLLHLLDWVRLHVCEVDSLSADVLGSENPSKHDSFWNLVTILVLQGRLDEARQMLSKEADASPASAGICRIMGDLMRTMPILSPGNTQTLTELELKWQHWHEECERYLQDSTFATSPHLESLLKIMLGDEAALLEQKELLSNWYHFLVTRLLYSNPTVKPIDLHYYAQSSLDLFLGGESSPEPLDNILLAAFEFDIHQVIKECSIALSNWWFVAHLTDLLDHCKLLQSHNLYFGSNMREFLLLEYASGLFAHPSLWQLGVDYFDYCPELGRVSLELHIERIPLNTEQKALKVLRICEQRQMTEQVRSICKILAMKAVRNNRLGSALSWSIRAKDAAFATLVSDRFLRDYCERGCFSDLDLIDNLGPAMMLSDRLTFLGKYREFHRMYGEKRFADAASLLLSLMTSRIAPRSFWMTLLTDALPLLEQKQVIFSAEQTYELMRCLEDLTSRRPVHGESDTEQLQDDDIETTKVEMLRLSLARNLARAIIREGSLEGS | binds |
| NUP133 (protein, UniProt Q8WUM0 1-1156) MFPAAPSPRTPGTGSRRGPLAGLGPGSTPRTASRKGLPLGSAVSSPVLFSPVGRRSSLSSRGTPTRMFPHHSITESVNYDVKTFGSSLPVKVMEALTLAEVDDQLTINIDEGGWACLVCKEKLIIWKIALSPITKLSVCKELQLPPSDFHWSADLVALSYSSPSGEAHSTQAVAVMVATREGSIRYWPSLAGEDTYTEAFVDSGGDKTYSFLTAVQGGSFILSSSGSQLIRLIPESSGKIHQHILPQGQGMLSGIGRKVSSLFGILSPSSDLTLSSVLWDRERSSFYSLTSSNISKWELDDSSEKHAYSWDINRALKENITDAIWGSESNYEAIKEGVNIRYLDLKQNCDGLVILAAAWHSADNPCLIYYSLITIEDNGCQMSDAVTVEVTQYNPPFQSEDLILCQLTVPNFSNQTAYLYNESAVYVCSTGTGKFSLPQEKIVFNAQGDSVLGAGACGGVPIIFSRNSGLVSITSRENVSILAEDLEGSLASSVAGPNSESMIFETTTKNETIAQEDKIKLLKAAFLQYCRKDLGHAQMVVDELFSSHSDLDSDSELDRAVTQISVDLMDDYPASDPRWAESVPEEAPGFSNTSLIILHQLEDKMKAHSFLMDFIHQVGLFGRLGSFPVRGTPMATRLLLCEHAEKLSAAIVLKNHHSRLSDLVNTAILIALNKREYEIPSNLTPADVFFREVSQVDTICECLLEHEEQVLRDAPMDSIEWAEVVINVNNILKDMLQAASHYRQNRNSLYRREESLEKEPEYVPWTATSGPGGIRTVIIRQHEIVLKVAYPQADSNLRNIVTEQLVALIDCFLDGYVSQLKSVDKSSNRERYDNLEMEYLQKRSDLLSPLLSLGQYLWAASLAEKYCDFDILVQMCEQTDNQSRLQRYMTQFADQNFSDFLFRWYLEKGKRGKLLSQPISQHGQLANFLQAHEHLSWLHEINSQELEKAHATLLGLANMETRYFAKKKTLLGLSKLAALASDFSEDMLQEKIEEMAEQERFLLHQETLPEQLLAEKQLNLSAMPVLTAPQLIGLYICEENRRANEYDFKKALDLLEYIDEEEDININDLKLEILCKALQRDNWSSSDGKDDPIEVSKDSIFVKILQKLLKDGIQLSEYLPEVKDLLQADQLGSLKSNPYFEFVLKANYEYYVQGQI | binds |
